Hit rate of the full screen: of about 1,200 compounds, fewer than 10 were called active.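 The calls were made as follows: active = inhibition reaching a set limit at one or more tested concentrations; inactive = inhibition under that limit at every dose.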 Some of the results follow. Results with a measured potency or affinity are listed apart.

A short description of the assay: yeast RAM network inhibitors, dose response, S. cerevisiae (AID 1307).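 Also: 0% = DMSO vehicle wells and 100% = 10 µM 1-NA-PP1 control; higher inhibition means more yeast growth since RAM block rescues cells from 5-FOA.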 The settings on record: S. cerevisiae RAM network URA3 reporter, 5-FOA growth OD615, stronger effect = higher value, yeast express analog-sensitive mutant Cbk1 kinase; at 100 µM unless noted.
For `Cc1cccc(C)c1OCC(O)Cn1c2ccccc2c2ccccc21` (configuration not stated), the max inhibition was inactive: 6.83% [at 50 µM].
`COc1cc(C(c2sc3nc(C)nn3c2O)N2CCN(c3ccccc3)CC2)cc(OC)c1OC` (configuration not stated): the max inhibition is inactive: 3.1% [at 0.196 µM].
The same measure for `CCCCOC(=O)c1ccc(NC(=O)/C=C/c2cccs2)cc1`: inactive: 6.49%.
Consider `COc1cc(CNC(=O)c2cccc(COc3ccc(Cl)cc3)c2)cc(OC)c1`, for which the max inhibition is inactive: 3.27% [at 0.391 µM].
In the case of `O=C1/C(=C/c2ccc3c(c2)OCO3)CCC/C1=C\c1ccc2c(c1)OCO2`, the max inhibition is inactive: 2.28% [at 50 µM].
In the case of `CCCCn1c(NS(=O)(=O)c2ccc(C)cc2)c(S(=O)(=O)c2ccccc2)c2nc3ccccc3nc21`, the max inhibition is inactive: 25.5%.
Consider `O=c1ccc(/C=C/c2ccccc2)nn1Cc1ccc(Cl)cc1Cl`, for which the max inhibition was inactive: 2.4% [at 50 µM].
As for `CCCc1cc(C(=O)OC)c(NC(=O)c2cc(C)on2)s1`, the max inhibition was inactive: 4.53% [at 6.25 µM].
For the compound `CCOC(=O)c1c(NC(=O)COC(=O)CCS(=O)(=O)c2ccc(C)cc2)sc(C)c1C`, the max inhibition is inactive: 2.54% [at 1.563 µM].
As for `COC(=O)CCSc1cc([N+](=O)[O-])cc2c1c(C1OCCS1)nn2-c1ccccc1` (configuration not stated), the max inhibition is inactive: 4.5% [at 1.563 µM].
For `CC(C)=CCc1c(O)c(CC=C(C)C)c2c(c1O)C(=O)CC(c1ccc(O)cc1)O2` (configuration not stated), the max inhibition is inactive: 7.82% [at 50 µM].
As to `COc1ccc(C(=O)/C=C/Nc2ccc(S(=O)(=O)Nc3onc(C)c3C)cc2)cc1`, the max inhibition is inactive: 13.4%.
To `O=[N+]([O-])c1ccc(N/N=C/c2sc(N3CCOCC3)nc2-c2ccccc2)c(S(=O)(=O)Nc2ccc(Cl)cc2)c1` belongs inactive: 8.74%; to `CN(C)c1ccnc2sc3c(SCc4ccc(Cl)cc4)ncnc3c12`, inactive: 7.85%.
With `N#C/C(=C\C1=C(N2CCOCC2)C(=C/c2cccc([N+](=O)[O-])c2)/CC1)C(=O)Nc1ccccc1F`, the max inhibition was inactive: 6.56%.
Take `CON/C=C(\C=Nc1ccc(Cl)cc1Cl)c1ncc(C(F)(F)F)cc1Cl`: the max inhibition was inactive: 3.96% [at 50 µM].
The same measure for `C=CCOC(=O)/C(=C/c1cccc2ccccc12)NC(=O)c1ccccc1`: inactive: 4.24%; for `CCCCCCNC(=O)CC(c1ccccc1)c1cc(Br)ccc1O` (configuration not stated): inactive: 2.95%; for `COc1ccc(O[C@H]2C=C[C@@H](c3ccccc3)O[C@@H]2CO/N=C(\C)CCC(=O)OC[C@H]2O[C@H](c3ccccc3)C=C[C@@H]2Oc2ccc(OC)cc2)cc1`: inactive: 6.56%.
Take `O=C(/C=C/c1ccc2c(c1)OCO2)NCCSCc1c(Cl)cccc1Cl`: the max inhibition is inactive: 2.2% [at 25 µM].
On to `COC(=O)c1sccc1NC(=O)c1csc2c1CCCC2`, for which the max inhibition was inactive: 2.81%.
To `O=C(NCc1ccc(F)cc1)c1ccc(S(=O)(=O)Nc2cccc(C(F)(F)F)c2)cc1` belongs inactive: 3.97% [at 0.391 µM]; to `COc1ccc(/C=C/C(=O)c2ccc(Cl)cc2)c(OC)c1`, inactive: 2.43% [at 50 µM].
To `O=C(NCc1ccccc1)c1ccc(S(=O)(=O)N2CCCc3ccccc32)cc1` belongs inactive: 2.24%; to `O=C(Nc1ccccc1-c1nnc(SCc2ccccc2Cl)o1)c1ccccc1`, inactive: 2.67% [at 50 µM]; to `COc1ccc(C(=O)NC(=S)Nc2ccc(N3CCCC3)cc2)cc1OC`, inactive: 5.31%.
Turning to `COc1ccc(-c2ccc(-c3noc(-c4ccccc4C)n3)c(OC)n2)cc1`, the max inhibition was inactive: 4.43% [at 6.25 µM].
Turning to `CCCC(=O)OCCNc1cc(SCc2ccco2)c2nonc2c1[N+](=O)[O-]`, the max inhibition was inactive: 4% [at 50 µM].
Regarding `COC(=O)Cc1ccc(N(Cc2ccccc2F)S(=O)(=O)c2ccc(Cl)cc2)cc1`, the max inhibition is inactive: 2.03% [at 6.25 µM].
Take `CCN(CC(O)CON=C1c2ccccc2-c2ccccc21)S(=O)(=O)c1ccc(Cl)cc1` (configuration not stated): the max inhibition was inactive: 4.62% [at 50 µM].
As to `C=CCOC(=O)C1=C(C)NC(C)=C(C(=O)OCC=C)C1/C=C/c1ccccc1`, the max inhibition was inactive: 4.5%.
For the compound `CN(C)S(=O)(=O)c1cccc(NC(=O)COC(=O)C2(c3ccccc3F)CCCC2)c1`, the max inhibition was inactive: 2.82% [at 0.782 µM].
Take `CCN(Cc1ccccc1)S(=O)(=O)c1ccc(S(=O)(=O)N(Cc2cccc(OC)c2)CC2CCCO2)cc1` (configuration not stated): the max inhibition is inactive: 3.17% [at 6.25 µM].
For the compound `O=C(/C=C/c1cccc([N+](=O)[O-])c1)NCCSCc1ccccc1Cl`, the max inhibition is inactive: 1.79% [at 6.25 µM].
`COc1ccc(/C=C(\C#N)C(=O)NCCc2ccccc2)cc1OCc1ccccc1`: the max inhibition is inactive: 4.42% [at 1.563 µM].
To `CCCC1S/C(=N/N=C/c2ccc(C)cc2)N(Cc2ccc(OC)cc2)C1=O` (configuration not stated) belongs inactive: 3.89% [at 50 µM].
Regarding `COc1ccc(C(=O)NNC(=O)C(Cc2ccc(O)cc2)NC(=O)c2ccccc2NC(=O)c2ccc(OC)cc2)cc1` (configuration not stated), the max inhibition is inactive: 3.19%.
With `COc1ccc(N2CCN(c3oc(COc4ccc(Cl)cc4)nc3C#N)CC2)cc1`, the max inhibition is inactive: 5.67%.
Turning to `CSc1ccccc1-c1nnc(-c2ccc(C)cc2)o1`, the max inhibition is inactive: 1.92% [at 50 µM].
Turning to `CCCCOC(=O)c1ccc(NC(=S)NC(=O)c2c(Cl)cnn2C)cc1`, the max inhibition was inactive: 6.83% [at 50 µM].
As to `COc1ccc(CN(CCC(c2ccccc2)c2ccco2)C(=O)c2ccco2)cc1` (configuration not stated), the max inhibition is inactive: 4.81% [at 6.25 µM].
`CCOC(=O)c1sc(NC(=O)/C=C/c2cnn(CC)c2C)c(C(=O)OCC)c1C`: the max inhibition is inactive: 1.66% [at 3.125 µM].
Take `CCOC(=O)c1c(NC(=O)CSc2nnc(-c3ccco3)o2)sc(C)c1C`: the max inhibition is inactive: 4.63% [at 0.391 µM].
Turning to `O=C(NCc1ccccc1)C1=C[C@@H](C2CCCCC2)C[C@@H](OCc2ccc(CO)cc2)O1`, the max inhibition was inactive: 3.21% [at 0.196 µM].
To `CC(C)CNC(=O)c1c(N)n(/N=C/c2ccccn2)c2nc3ccccc3nc12` belongs inactive: 2.07% [at 0.196 µM]; to `O=C(CN(Cc1ccccc1F)S(=O)(=O)c1ccc(Cl)cc1)NCCC1=CCCCC1`, inactive: 3.06%; to `Cc1cc2c(C)ccc(C)c2nc1SCC(=O)c1cccs1`, inactive: 5.59% [at 25 µM].

(Values after PubChem BioAssay AID1307 (SRMLSC, 2008).)
